Test results: PubChem BioAssay (NCATS)
Where “and” joins values, the source holds several entries; their conditions need not be identical. Equal values may be shown once. The list shows a part of the results. These are further read-outs of the screen, such as a control signal, another cell line or another target. No call is given for them. Most of these compounds were active or inconclusive in the main read-out, so they are no random draw. The note in brackets gives the kind of curve behind each potency; many fits are weak. Peptide text beside a SMILES is read from it.

experiment: qHTS assay for small molecule antagonists of peroxisome proliferator-activated receptor gamma signaling (AID 588537); details: HEK293 PPARg-UAS-bla, beta-lactamase ratio, antagonist mode; measured here: W460 blue channel
Description: NIH Chemical Genomics Center [NCGC]
U.S. Environmental Protection Agency [EPA]
National Institutes of Environmental Health Sciences [NIEHS]
National Toxicology Program [NTP]
The Peroxisome proliferator-activated receptors (PPARs) are lipid-activated transcription factors of the nuclear receptor superfamily with three distinct subtypes namely PPAR alpha, PPAR delta (also called PPAR beta) and PPAR gamma. All these subtypes heterodimerizes with Retinoid X receptor (RXR) and these heterodimers regulate transcription of various genes. PPAR-gamma (glitazone receptor) ligands have been used in the treatment of type 2 diabetes and dyslipidaemia. It is involved in the regulation of glucose and lipid metabolism. PPAR-gamma activates certain genes like Paraoxonase 1 which is responsible for hydrolyzing organophosphates. PPAR-gamma ligands may also be therapeutically important in the treatment of coronary artery disease, obesity and cancer and atherosclerosis.
NCGC Assay Protocol Summary
Using a beta-lactamase reporter-gene under control of Peroxisome Proliferator-Activated-gamma (PPAR-gamma) response element, a cell-based assay [GeneBLAzer PPAR-gamma-UAS-bla assay developed by Invitrogen] was used to measure PPAR-gamma ligands signaling. GeneBLAzer PPAR-gamma-UAS-bla-HEK293 cells were used with assay medium containing 1% charcoal/dextran treated FBS. The assay was performed in clear bottom black Greiner 1536-well plates. Library compounds were measured for their ability to inhibit the reporter gene activity. Compounds were screened in a titration series in 1536-well format. The fluorescence intensity (405 nm excitation, 460/530 nm emission) was measured using an EnVision plate reader. Data was normalized relative to Rosiglitazone control (50 nM, 100%), and DMSO only wells (basal, 0%). Concentration-response titration points for each compound were fitted to the Hill equation yielding concentrations of half-maximal inhibition (IC50) and maximal response (efficacy) values.
qHTS protocol for PPAR-gamma beta-lactamase assay in antagonist mode
[Step] [Parameter] [Value] [Description]
1. Reagent; 5 uL; 3000 cells/well
2. Incubation; 37 C for 6-6.5 hrs
4. Controls (GW9662, PPAR-gamma antagonist); 23 nL,
5. Agonist (Stimulator); 1uL; Rosiglitazone at 50 nM (final) concentration
6. Incubation; 37 C for 16 hrs
7. Detection reagent; 1 uL of CCF4-dye
8. Incubation; RT for 2 hrs
9. Detection; Fluorescence; Envision plate reader

Compound	AC50
O=C1NC(=O)c2cc([N+](=O)[O-])ccc21	50.1 µM [rising, single point]
CC(C)O	8.91 µM [falling, partial curve, poor fit]
OC[C@H]1O[C@@H]2O[C@H]3[C@H](O)[C@@H](O)[C@@H](O[C@H]4[C@H](O)[C@@H](O)[C@@H](O[C@H]5[C@H](O)[C@@H](O)[C@@H](O[C@H]6[C@H](O)[C@@H](O)[C@@H](O[C@H]7[C@H](O)[C@@H](O)[C@@H](O[C@H]1[C@H](O)[C@H]2O)O[C@@H]7CO)O[C@@H]6CO)O[C@@H]5CO)O[C@@H]4CO)O[C@@H]3CO	50.1 µM [rising, single point]
CCCCC(=O)N(C)C	50.1 µM [rising, single point]
Cc1ccc(S(N)(=O)=O)cc1	70.8 µM [rising, single point]
CCCCOCCOCCOCc1cc2c(cc1CCC)OCO2	2.82 µM [falling, full curve, poor fit]
CC[C@@H]1Cc2cc(O)ccc2C2=C1c1ccc(O)cc1C[C@H]2CC	44.7 µM [falling, partial curve, poor fit]
CCOCCO	50.1 µM [rising, single point]
C=CCCCCCCCCC(=O)O	44.7 µM [falling, partial curve, poor fit]
O=C(O)CCCCC1CCSS1 (stereo not given)	70.8 µM [rising, single point]
COc1ccc(Cl)cc1C(=O)NCCc1ccc(S(=O)(=O)NC(=O)NC2CCCCC2)cc1	39.8 µM [falling, partial curve, poor fit]
S=C([S-])NCCNC(=S)[S-].S=C([S-])NCCNC(=S)[S-].[Mn+2].[Zn+2]	0.0126 µM [rising, full curve, poor fit]
Cc1ccc(C(C)(C)C)cc1	70.8 µM [rising, single point]
O=C(O)c1cc(=O)[nH]c(=O)[nH]1	44.7 µM [rising, partial curve]
O=C(Nc1ccccc1)c1cc(Cl)ccc1O	39.8 µM [falling, partial curve, poor fit]
CC1(COc2ccc(CC3SC(=O)NC3=O)cc2)CCCCC1 (stereo not given)	14.1 µM [rising, partial curve, poor fit]
Nc1ccc(O)c(C(=O)O)c1	50.1 µM [rising, single point]
Clc1ccc(-c2nc3sccn3c2/C=N/OCc2ccc(Cl)c(Cl)c2)cc1	14.1 µM [rising, partial curve, poor fit]
C=C(C)C(N)=O	50.1 µM [rising, single point]
O=C1C=CCCC1	50.1 µM [rising, single point]

Random excerpt: 3 entries already listed
Compound	AC50
O=C(O)CCCCC1CCSS1 (stereo not given)	70.8 µM [rising, single point]
O=C(O)c1cc(=O)[nH]c(=O)[nH]1	44.7 µM [rising, partial curve]
Clc1ccc(-c2nc3sccn3c2/C=N/OCc2ccc(Cl)c(Cl)c2)cc1	14.1 µM [rising, partial curve, poor fit]

Later entries:

Compound	AC50
COc1cc(-c2ccc(N=C=O)c(OC)c2)ccc1N=C=O	10 µM [falling, full curve, poor fit]
COC(=O)[C@H](Cc1ccccc1)NC(=O)[C@@H](N)CC(=O)O (H-Asp-Phe-OMe)	10 µM [falling, full curve, poor fit]
O=Cc1ccc(CO)o1	70.8 µM [rising, single point]
Nc1cccc2c(N)cccc12	50.1 µM [rising, single point]
O=c1n(CC2CO2)c(=O)n(CC2CO2)c(=O)n1CC1CO1 (stereo not given)	44.7 µM [rising, partial curve, poor fit] and 6.31 µM [rising, full curve, poor fit]
CCc1nc(N)nc(N)c1-c1ccc(Cl)cc1	0.0316 µM [falling, full curve, poor fit]
CN(C)CCCN1c2ccccc2Sc2ccc(Cl)cc21	0.00112 µM [falling, full curve, poor fit]
COc1nc(C)nc(NC(=O)NS(=O)(=O)c2ccccc2OCCCl)n1	50.1 µM [falling, single point]
Cc1cccc(Br)c1	50.1 µM [rising, single point]
Cc1ccccc1Br	50.1 µM [rising, single point]
O=c1[nH]c(=O)n([C@H]2C[C@H](O)[C@@H](CO)O2)cc1Br	63.1 µM [rising, single point]
Cc1ccc(S(=O)(=O)O)cc1C	50.1 µM [rising, single point]
CCCC(=O)OC(=O)CCC	70.8 µM [rising, single point]
O=C(O)c1cc(O)c2c(c1)C(=O)c1cccc(O)c1C2=O	7.08 µM [rising, partial curve, poor fit]
Nc1ccc2cc3ccccc3cc2c1	44.7 µM [rising, single point]
CCN(Cc1cccc(S(=O)(=O)O)c1)c1ccc(C(=C2C=CC(=[N+](CC)Cc3cccc(S(=O)(=O)O)c3)C=C2)c2ccccc2S(=O)(=O)[O-])cc1	0.00126 µM [falling, full curve, poor fit]
CC(=O)c1ccc(Cl)c(Cl)c1Cl	25.1 µM [falling, partial curve, poor fit]
Cc1ccc(S(=O)(=O)Oc2ccc(N=Nc3ccc(-c4ccc(N=Nc5c(O)ccc6cc(S(=O)(=O)O)cc(S(=O)(=O)O)c56)c(C)c4)cc3C)cc2)cc1	14.1 µM [falling, full curve]
CCCCCCCCCCCC(=O)OC	35.5 µM [falling, partial curve]
CCCCCOC(=O)COc1cc(N2C(=O)C3=C(CCCC3)C2=O)c(F)cc1Cl	2.24 µM [falling, full curve, poor fit]
